{"source": "patent US5451564A", "about": "“Antimicrobial composition comprising N-hydroxy heterocyclic thiones” (priority 1991, dated 1995)", "tested_on": "mixed suspension of Pseudomonas aeruginosa, Proteus rettgeri, Serratia marcescans, Aeromonas hydrophila, Alcaligenes species, Pseudomonas cepacia and …", "assay": "repeated bacterial challenge test in acrylic (emulsion) paint", "type": "cell-based, mixed bacteria", "parameters": "key: 5: Confluent growth; 4: Heavy growth; 3: Moderate growth; 2: Slight growth; 1: Trace growth; 0: No growth", "procedure": "An inoculum was prepared containing Pseudomonas aeruginosa, Proteus rettgeri, Serratia marcescans, Aeromonas hydrophila, Alcaligenes species, Pseudomonas cepacia and Pseudomonas putida by culturing the individual organisms onto nutrient agar and incubating for 24 hours at 30° C. Each of the individual suspensions of the test organisms were then prepared at a concentration of 10E8 cfu/ml in one quarter strength Ringer's solution by means of a Thoma counting chamber. A mixed suspension was obtained by mixing equal volumes of the individual suspensions. This procedure was repeated for each of the three challenges to which the test substrates were subjected, and the concentration of micro-organisms in each substrate after challenge was 2×10E6 cfu/ml.\nAliquots (50 parts) of a standard laboratory acrylic latex and an emulsion paint were prepared containing 0, 10, 25, 50, 100, 125, 250, 500 and 750 ppm of the 1:2 zinc complex of 3-hydroxy-4-methylthiazol-2(3H)thione which was prepared as a 1% dispersion in an aqueous solution of 0.1M tetrasodium pyrophosphate. A 1% dispersion of the 1:2 zinc complex of 1-hydroxy-2-pyridinethiol in an aqueous solution of 0.1M tetrasodiumpyrophosphate was evaluated in the same manner.\nThe test substrates were then stored at 40° C. for seven days and were then challenged on three separate occasions with 1 part by volume of the mixed suspension of micro-organisms. All the substrates were then incubated at 30° C. and examined for the presence of viable bacteria after 1, 3 and 7 days after each challenge (Phase 1).\nThose samples which had achieved sterility were then stored for a further 8 weeks at 30° C., and were then rechallenged and the number of viable organisms again determined (Phase 2).\nViable bacteria were detected by streaking small aliquots onto nutrient agar followed by incubation at 30° C. for 2 days. The presence or absence of colonies was determined visually. […]", "note": "This continues a long series; more values of the same kind are listed elsewhere.", "data": [{"smiles": "Cc1csc(=S)n1[O-].Cc1csc(=S)n1[O-].[Zn+2]", "note": "[Compound A, 1:2 zinc complex of 3-hydroxy-4-methylthiazol-2(3H)thione]", "values": [{"measurement": "growth rating", "setting": "paint 100 ppm, Phase 1 Chall 1, day 3", "value": 2}, {"measurement": "growth rating", "setting": "paint 100 ppm, Phase 1 Chall 1, day 7", "value": 0}, {"measurement": "growth rating", "setting": "paint 100 ppm, Phase 1 Chall 2, day 1", "value": 5}, {"measurement": "growth rating", "setting": "paint 100 ppm, Phase 1 Chall 2, day 3", "value": 4}, {"measurement": "growth rating", "setting": "paint 100 ppm, Phase 1 Chall 2, day 7", "value": 0}, {"measurement": "growth rating", "setting": "paint 100 ppm, Phase 1 Chall 3, day 1", "value": 5}, {"measurement": "growth rating", "setting": "paint 100 ppm, Phase 1 Chall 3, day 3", "value": 4}, {"measurement": "growth rating", "setting": "paint 100 ppm, Phase 1 Chall 3, day 7", "value": 0}, {"measurement": "growth rating", "setting": "paint 125 ppm, Phase 1 Chall 1, day 1", "value": 5}, {"measurement": "growth rating", "setting": "paint 125 ppm, Phase 1 Chall 1, day 3", "value": 2}, {"measurement": "growth rating", "setting": "paint 125 ppm, Phase 1 Chall 1, day 7", "value": 0}, {"measurement": "growth rating", "setting": "paint 125 ppm, Phase 1 Chall 2, day 1", "value": 5}, {"measurement": "growth rating", "setting": "paint 125 ppm, Phase 1 Chall 2, day 3", "value": 4}, {"measurement": "growth rating", "setting": "paint 125 ppm, Phase 1 Chall 2, day 7", "value": 0}, {"measurement": "growth rating", "setting": "paint 125 ppm, Phase 1 Chall 3, day 1", "value": 5}, {"measurement": "growth rating", "setting": "paint 125 ppm, Phase 1 Chall 3, day 3", "value": 4}, {"measurement": "growth rating", "setting": "paint 125 ppm, Phase 1 Chall 3, day 7", "value": 0}, {"measurement": "growth rating", "setting": "paint 250 ppm, Phase 1 Chall 1, day 1", "value": 5}, {"measurement": "growth rating", "setting": "paint 250 ppm, Phase 1 Chall 1, day 3", "value": 1}, {"measurement": "growth rating", "setting": "paint 250 ppm, Phase 1 Chall 1, day 7", "value": 0}, {"measurement": "growth rating", "setting": "paint 250 ppm, Phase 1 Chall 2, day 1", "value": 4}, {"measurement": "growth rating", "setting": "paint 250 ppm, Phase 1 Chall 2, day 3", "value": 4}, {"measurement": "growth rating", "setting": "paint 250 ppm, Phase 1 Chall 2, day 7", "value": 0}, {"measurement": "growth rating", "setting": "paint 250 ppm, Phase 1 Chall 3, day 1", "value": 5}, {"measurement": "growth rating", "setting": "paint 250 ppm, Phase 1 Chall 3, day 3", "value": 4}, {"measurement": "growth rating", "setting": "paint 250 ppm, Phase 1 Chall 3, day 7", "value": 0}, {"measurement": "growth rating", "setting": "paint 500 ppm, Phase 1 Chall 1, day 1", "value": 5}, {"measurement": "growth rating", "setting": "paint 500 ppm, Phase 1 Chall 1, day 3", "value": 1}, {"measurement": "growth rating", "setting": "paint 500 ppm, Phase 1 Chall 1, day 7", "value": 0}, {"measurement": "growth rating", "setting": "paint 500 ppm, Phase 1 Chall 2, day 1", "value": 4}, {"measurement": "growth rating", "setting": "paint 500 ppm, Phase 1 Chall 2, day 3", "value": 3}, {"measurement": "growth rating", "setting": "paint 500 ppm, Phase 1 Chall 2, day 7", "value": 0}, {"measurement": "growth rating", "setting": "paint 500 ppm, Phase 1 Chall 3, day 1", "value": 5}, {"measurement": "growth rating", "setting": "paint 500 ppm, Phase 1 Chall 3, day 3", "value": 3}, {"measurement": "growth rating", "setting": "paint 500 ppm, Phase 1 Chall 3, day 7", "value": 0}, {"measurement": "growth rating", "setting": "paint 750 ppm, Phase 1 Chall 1, day 1", "value": 4}, {"measurement": "growth rating", "setting": "paint 750 ppm, Phase 1 Chall 1, day 3", "value": 1}, {"measurement": "growth rating", "setting": "paint 750 ppm, Phase 1 Chall 1, day 7", "value": 0}, {"measurement": "growth rating", "setting": "paint 750 ppm, Phase 1 Chall 2, day 1", "value": 4}, {"measurement": "growth rating", "setting": "paint 750 ppm, Phase 1 Chall 2, day 3", "value": 3}, {"measurement": "growth rating", "setting": "paint 750 ppm, Phase 1 Chall 2, day 7", "value": 0}, {"measurement": "growth rating", "setting": "paint 750 ppm, Phase 1 Chall 3, day 1", "value": 4}, {"measurement": "growth rating", "setting": "paint 750 ppm, Phase 1 Chall 3, day 3", "value": 4}, {"measurement": "growth rating", "setting": "paint 750 ppm, Phase 1 Chall 3, day 7", "value": 0}]}]}
